Measured values published in PMC12167790.
These are yes or no findings as the source states them, for the method shown. Some entries that bind do so weakly or less than the wild type.

Amino acid sequences for entries named in this document (tags omitted). Residues count along the entry.
UniProt P08962: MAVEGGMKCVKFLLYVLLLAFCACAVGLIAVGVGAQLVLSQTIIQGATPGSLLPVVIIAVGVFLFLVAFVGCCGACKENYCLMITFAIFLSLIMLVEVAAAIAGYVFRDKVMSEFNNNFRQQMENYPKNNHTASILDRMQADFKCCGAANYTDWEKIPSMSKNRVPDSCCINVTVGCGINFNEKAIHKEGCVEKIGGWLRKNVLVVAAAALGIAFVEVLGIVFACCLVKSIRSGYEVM
UniProt P01033, residues 24-207: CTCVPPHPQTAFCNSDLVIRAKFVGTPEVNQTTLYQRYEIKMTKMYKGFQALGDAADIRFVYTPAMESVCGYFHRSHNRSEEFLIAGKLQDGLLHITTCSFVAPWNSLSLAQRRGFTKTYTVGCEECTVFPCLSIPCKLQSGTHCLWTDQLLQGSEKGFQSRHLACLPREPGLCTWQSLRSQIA

Biological target: tetraspanin CD63 on TIMP-1 KO T3M4 cells (human (endogenous in T3M4)) (UniProt P08962)
Assay: flow cytometry on cells; TIMP-1 KO T3M4 cells incubated with equimolar (escalating) doses of recombinant TIMP-1 in 1% BSA in PBS for 10 min on ice, washed, fixed with 2% PFA, stained for TIMP-1 and CD63; geometric mean of TIMP-1 staining of CD63-positive single cells, untreated control subtracted; only the binder purified

In the case of “recombinant double-glycosylated TIMP-1 (rTIMP-1^glyc1/1) (from UniProt P01033 24-207)”, the binding was “binds”.
